Experiment in all cases: co-IP; whole-cell extracts of transfected NB4 cells, overnight with the antibody (anti-Flag, anti-PKM2 or anti-HA) and protein A/G plus-agarose at 4 °C; wash 50 mM Tris-HCl pH 7.6, 300 mM NaCl, 1 mM EDTA, 0.5% Nonidet P-40, 10% glycerol; western blot
Assay [1] has as its target endogenous PKM2 of NB4 cells (human (endogenous in NB4)) (UniProt P14618).
The target in assay [2] is HA-RUNX1 expressed in NB4 cells (human) (UniProt Q01196).
Assay [3] addresses Flag-PKM2 expressed in NB4 cells (UniProt P14618).
The target in assay [4] is Flag-tagged RUNX1 (Runt-related transcription factor 1), full length (human) (UniProt Q01196).

Sequences of proteins named here, by UniProt entry; tags and fusion partners are left off.
UniProt P14618: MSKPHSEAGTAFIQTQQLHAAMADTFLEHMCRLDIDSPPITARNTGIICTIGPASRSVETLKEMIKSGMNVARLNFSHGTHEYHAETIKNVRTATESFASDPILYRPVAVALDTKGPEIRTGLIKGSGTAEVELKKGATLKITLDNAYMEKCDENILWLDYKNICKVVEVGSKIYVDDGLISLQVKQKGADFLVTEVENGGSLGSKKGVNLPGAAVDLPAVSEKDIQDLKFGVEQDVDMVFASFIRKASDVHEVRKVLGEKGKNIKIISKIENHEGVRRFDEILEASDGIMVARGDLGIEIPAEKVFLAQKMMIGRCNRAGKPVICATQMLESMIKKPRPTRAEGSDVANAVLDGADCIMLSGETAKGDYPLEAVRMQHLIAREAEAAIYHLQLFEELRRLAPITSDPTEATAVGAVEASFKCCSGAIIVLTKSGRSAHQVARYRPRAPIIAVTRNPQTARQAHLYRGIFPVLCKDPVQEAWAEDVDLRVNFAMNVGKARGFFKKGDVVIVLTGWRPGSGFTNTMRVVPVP
UniProt Q01196: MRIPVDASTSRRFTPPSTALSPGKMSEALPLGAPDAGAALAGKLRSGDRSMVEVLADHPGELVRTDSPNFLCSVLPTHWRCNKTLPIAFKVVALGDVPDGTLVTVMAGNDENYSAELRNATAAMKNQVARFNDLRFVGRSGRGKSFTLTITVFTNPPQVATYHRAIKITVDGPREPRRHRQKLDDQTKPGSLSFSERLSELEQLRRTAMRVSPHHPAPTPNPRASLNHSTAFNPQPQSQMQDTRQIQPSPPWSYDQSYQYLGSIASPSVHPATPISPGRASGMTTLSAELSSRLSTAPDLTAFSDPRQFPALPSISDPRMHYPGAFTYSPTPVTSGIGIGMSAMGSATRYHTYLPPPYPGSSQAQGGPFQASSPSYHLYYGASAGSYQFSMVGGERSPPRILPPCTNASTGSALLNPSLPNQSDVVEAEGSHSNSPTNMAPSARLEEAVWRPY

Results are given in words; binding and its absence hold for the method and conditions named. Binding seen in cells or lysates may run through a third protein. Some entries that bind do so weakly or less than the wild type.

For “Flag-tagged RUNX1 (Runt-related transcription factor 1), full length (from UniProt Q01196 1-453)”, the binding entry in assay [1] is recorded as “binds”.

Consider “WT PKM2 co-expressed with HA-RUNX1 in NB4 cells (from UniProt P14618 1-531) (enzyme)”, for which the binding result in assay [2] is listed as “binds”.

On to “WT RUNX1 co-expressed with Flag-PKM2 in NB4 cells (from UniProt Q01196 1-453)”, for which the binding entry in assay [3] is “binds”.

Regarding “endogenous PKM2 of NB4 cells (from UniProt P14618 1-531) (enzyme)”, the binding result in assay [4] is recorded as “binds”.

For the origin of these results see article PMC7817830.
